Paper PMC3519677

Legend:
[1] = molecular target: T1, tongue cancer resistance-associated protein 1 (TCRP1), endogenous (human (endogenous in Tca8113/PYM)) (UniProt Q92567); experiment: co-IP; Tca8113/PYM cell lysates (modified TNE buffer: 50 mM Tris pH 8.0, 150 mM NaCl, 1% Nonidet P-40) precipitated overnight at 4°C with anti-TCRP1 antibody or control IgG, protein G-agarose; immunoblot
T1 sequence: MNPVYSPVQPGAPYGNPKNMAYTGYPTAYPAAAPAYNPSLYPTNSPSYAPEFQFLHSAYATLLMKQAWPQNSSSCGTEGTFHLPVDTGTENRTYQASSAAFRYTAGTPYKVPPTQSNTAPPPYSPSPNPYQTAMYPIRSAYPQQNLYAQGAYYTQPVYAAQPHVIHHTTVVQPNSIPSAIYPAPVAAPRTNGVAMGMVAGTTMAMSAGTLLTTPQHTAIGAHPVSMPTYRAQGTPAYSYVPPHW

[2] = molecular target: T2, GST-tagged TCRP1 (human) (UniProt Q92567); experiment: pull-down; ten micrograms of GST or GST-tagged TCRP1 incubated with Tca8113/PYM cell lysates for 4 h at 4°C; immunoblot with antibodies against GST, Akt or MT1X; only the target purified
T2 sequence: T1 sequence

Substance: Akt (human (endogenous in Tca8113/PYM))
- binding [1]: binds
- binding [2]: binds

Results are given in words; binding and its absence hold for the method and conditions named. In cells and extracts the contact can be indirect. Binding calls can cover weak binding; strength is not graded here. For some assays here: Tags and fused reporters may be left off the sequences shown.
